PubChem BioAssay AID602196, INSERM – 2012
Here is an unselected part of about 23,000 reagents tested. 455 of all reagents (2%) count as active. 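Active includes both protection and sensitisation; some change values fall well beyond the stated -50 to +50 range.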 Not all columns of the deposit are shown. Not given: the amount of reagent.

Test: 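Genes whose knock-down alters cisplatin killing of lung cancer cells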
Cell system: human A549 lung cancer cells
Reagents: siRNA pair against human genes
Duration: 48 h transfection before cisplatin; time from cisplatin to read-out not stated
Conditions: cisplatin at a dose killing half of control-siRNA cells; exact dose and duration not given
Read-out: 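Shift in cisplatin death relative to control siRNA, from -50 (all cells die) to +50 (no cells die); siRNAs harmful on their own scored 0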
Direction: two-siRNA summed score (-2 to +2): higher = both siRNAs protect from cisplatin killing; -2 means both sensitise; mean protection from cisplatin (shift in death): higher = protection from cisplatin killing
Call rule: 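siRNAs harmful alone (LDH or WST-1) get 0; others get +1 for less and -1 for more cisplatin killing; genes are active when the two siRNAs give the same sign, summing to ±2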
Meaning of the calls: active = both siRNAs shift cisplatin killing the same way; inactive = no consistent shift, or siRNA harmful alone

SIAH3
- two-siRNA summed score (-2 to +2): 1
- mean protection from cisplatin (shift in death) (%): 14.7
- outcome: inactive

MEIS3
- two-siRNA summed score (-2 to +2): 0
- mean protection from cisplatin (shift in death) (%): 7.4
- outcome: inactive

MID1IP1
- two-siRNA summed score (-2 to +2): 0
- mean protection from cisplatin (shift in death) (%): 0
- outcome: inactive

LINC02915
- two-siRNA summed score (-2 to +2): -1
- mean protection from cisplatin (shift in death) (%): -7.7
- outcome: inactive

TRIM38
- two-siRNA summed score (-2 to +2): 0
- mean protection from cisplatin (shift in death) (%): -1.5
- outcome: inactive

LOC441529
- two-siRNA summed score (-2 to +2): 0
- mean protection from cisplatin (shift in death) (%): 9.9
- outcome: inactive

SPTLC2
- two-siRNA summed score (-2 to +2): 1
- mean protection from cisplatin (shift in death) (%): 10.4
- outcome: inactive

LOC441366
- two-siRNA summed score (-2 to +2): 0
- mean protection from cisplatin (shift in death) (%): -0.1
- outcome: inactive

SPTBN2
- two-siRNA summed score (-2 to +2): 0
- mean protection from cisplatin (shift in death) (%): 3.8
- outcome: inactive

LOC400749
- two-siRNA summed score (-2 to +2): 1
- mean protection from cisplatin (shift in death) (%): 15.4
- outcome: inactive

ANKRD49
- two-siRNA summed score (-2 to +2): 0
- mean protection from cisplatin (shift in death) (%): 15.9
- outcome: inactive

OR5A2
- two-siRNA summed score (-2 to +2): 0
- mean protection from cisplatin (shift in death) (%): 4
- outcome: inactive
